For 1 substance, binding results are on record in article PMC8668967.

Protein sequences, listed by entry. Tags and fused reporters are not part of them.
UniProt P60484: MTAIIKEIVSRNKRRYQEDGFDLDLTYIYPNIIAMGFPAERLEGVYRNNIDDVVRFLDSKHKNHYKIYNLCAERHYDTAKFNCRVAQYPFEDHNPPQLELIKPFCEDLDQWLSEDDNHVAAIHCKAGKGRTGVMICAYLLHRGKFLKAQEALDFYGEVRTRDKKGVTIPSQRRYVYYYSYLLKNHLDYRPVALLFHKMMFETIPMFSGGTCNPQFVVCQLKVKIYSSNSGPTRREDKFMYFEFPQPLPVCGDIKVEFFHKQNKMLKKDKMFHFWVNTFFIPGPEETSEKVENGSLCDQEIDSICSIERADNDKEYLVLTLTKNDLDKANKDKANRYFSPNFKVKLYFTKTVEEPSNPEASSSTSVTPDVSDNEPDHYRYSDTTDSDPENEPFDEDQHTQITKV

The target of the experiment is PTEN (phosphatase and tensin homolog on chromosome ten) (human (endogenous in HCC cells)) (UniProt P60484). Nature of the experiment: co-IP; endogenous proteins in HCC cell lysate (IP lysis buffer); antibodies against p62, LAMP2A, LC3B or PTEN on protein G magnetic beads, overnight at 4 °C, washed with NT2 buffer (50 mM Tris-HCl pH 7.4, 150 mM NaCl, 1 mM MgCl2, 0.05% NP40), western blot; also done in RP11-295G20.2 knockout cells (association decreased) and RP11-295G20.2-overexpressing cells (association increased). A general note: In western blotting, separated proteins are transferred to a membrane and probed.

These are yes or no findings as the source states them, for the method shown. Binding seen in cells or lysates may run through a third protein. Some results given as binding are weak or reduced against the parent protein; the word gives no strength.

For p62 (from UniProt Q13501 1-440), the binding entry is “binds”.
